Source: article PMC12670408 (Journal of Medicinal Chemistry, 2025)
Numbered stars: 1 amine (or outer) side, 2 acyl side, 3 side chain; on linkers, the order of the positions; unused ones are H or OH. Square brackets hold non-standard residues; d marks the D form. Ile(ψThz) = CC[C@H](C)[C@H](N[*:1])c1nc(C(=O)[*:2])cs1

Experiment: general procedure: Fmoc solid-phase peptide synthesis; chlorotrityl chloride resin; PyBOP/DIPEA; COMU for dipeptide fragments; PyBOP for solution cyclisation
Details: whole synthesis

Substance	isolated yield [%]
cyclo(AFPIPIC) (SMILES CC[C@H](C)[C@@H]1NC(=O)[C@@H]2CCCN2C(=O)[C@H]([C@@H](C)CC)NC(=O)[C@@H]2CCCN2C(=O)[C@H](Cc2ccccc2)NC(=O)[C@H](C)NC(=O)[C@H](CS)NC1=O)	42
cyclo(AFPIP[Ile(ψThz)]) (SMILES CC[C@H](C)[C@@H]1NC(=O)[C@@H]2CCCN2C(=O)[C@H](Cc2ccccc2)NC(=O)[C@H](C)NC(=O)c2csc(n2)[C@H]([C@@H](C)CC)NC(=O)[C@@H]2CCCN2C1=O)	86
